{"sequences": {"note": "By UniProt entry, the sequences of proteins in these tests, tags left out. Where a name states a change or a piece, a line headed by the entry shows the natural chain unless it says otherwise.", "UniProt Q5LDU9": "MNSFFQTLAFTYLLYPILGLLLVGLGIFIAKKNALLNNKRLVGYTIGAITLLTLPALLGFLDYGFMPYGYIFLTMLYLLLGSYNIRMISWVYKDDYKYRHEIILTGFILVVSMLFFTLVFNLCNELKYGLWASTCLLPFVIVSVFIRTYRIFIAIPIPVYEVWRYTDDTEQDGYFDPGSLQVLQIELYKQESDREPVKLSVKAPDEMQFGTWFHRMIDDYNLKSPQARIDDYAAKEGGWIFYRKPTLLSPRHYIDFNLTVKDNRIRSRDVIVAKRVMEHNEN", "UniProt A0A380YY58": "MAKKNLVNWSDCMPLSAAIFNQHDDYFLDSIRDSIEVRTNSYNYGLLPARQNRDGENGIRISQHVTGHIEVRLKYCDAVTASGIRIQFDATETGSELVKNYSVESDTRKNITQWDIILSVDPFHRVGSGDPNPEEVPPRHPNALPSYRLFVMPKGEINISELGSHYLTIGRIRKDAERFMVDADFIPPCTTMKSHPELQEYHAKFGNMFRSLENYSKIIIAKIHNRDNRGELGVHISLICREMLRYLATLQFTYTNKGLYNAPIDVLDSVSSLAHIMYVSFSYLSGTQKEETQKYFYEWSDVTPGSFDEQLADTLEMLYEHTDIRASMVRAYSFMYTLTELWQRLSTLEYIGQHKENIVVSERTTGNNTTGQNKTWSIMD", "UniProt Q5LDV3": "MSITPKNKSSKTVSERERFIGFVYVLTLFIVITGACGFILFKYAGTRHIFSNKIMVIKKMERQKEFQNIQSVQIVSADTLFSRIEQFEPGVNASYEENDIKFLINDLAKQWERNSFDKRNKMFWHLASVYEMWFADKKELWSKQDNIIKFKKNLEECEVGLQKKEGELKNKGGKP", "UniProt Q5LDV4": "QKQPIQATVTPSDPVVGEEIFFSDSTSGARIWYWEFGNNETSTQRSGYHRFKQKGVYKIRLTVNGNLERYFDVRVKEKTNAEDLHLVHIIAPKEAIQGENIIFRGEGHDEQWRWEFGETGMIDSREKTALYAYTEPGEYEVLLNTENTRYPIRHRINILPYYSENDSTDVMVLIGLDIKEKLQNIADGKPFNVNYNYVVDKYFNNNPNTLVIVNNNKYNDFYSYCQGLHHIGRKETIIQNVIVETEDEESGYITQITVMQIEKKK"}, "source": "paper PMC10781749", "key": {"[1]": {"target": "TssN with a C-terminal STREP tag, produced in E. coli (Bacteroides fragilis NCTC 9343) (UniProt Q5LDU9)", "test": "pull-down; pairwise co-production in E. coli; extraction from membranes with detergent; TssN^S as bait on a STREP-affinity column (StrepTrap), elution with desthiobiotin; immunoblot"}, "[2]": {"target": "TssN^STREP (tssN tagged at its native locus in B. fragilis NCTC 9343) (Bacteroides fragilis NCTC 9343) (UniProt Q5LDU9)", "test": "pull-down; same two-step affinity purification from B. fragilis membranes; elution probed by Western blot with anti-STREP and anti-HIS"}, "[3]": {"target": "periplasmic domain of TssR with a STREP tag (TssRp^S) (Bacteroides fragilis NCTC 9343) (UniProt Q5LDV5)", "test": "pull-down; periplasmic domains co-produced in E. coli; TssRp^S as bait on a STREP-affinity column; immunoblot"}}, "note": "These are yes or no findings as the source states them, for the method shown. Binding seen in cells or lysates may run through a third protein. Binding calls can cover weak binding; strength is not graded here."}
{"substance": "TssK^HA (from UniProt A0A380YY58)", "values": [{"measurement": "binding", "setting": "[1]", "value": "binds"}]}
{"substance": "^HISTssO (tssO tagged at its native locus in B. fragilis NCTC 9343) (from UniProt Q5LDV3)", "values": [{"measurement": "binding", "setting": "[2]", "value": "binds"}]}
{"substance": "periplasmic domain of TssP (TssPp) (from UniProt Q5LDV4) (domain or fragment)", "values": [{"measurement": "binding", "setting": "[3]", "value": "binds"}]}
